Results: the supplement of paper PMC10849652
The list shows a part of the results.

Chains of the proteins cited; added tags and fusions are not shown. Lines headed by an entry give the natural chain unless they say otherwise; changes in a name come on top.
UniProt P51149, whole entry, looked up: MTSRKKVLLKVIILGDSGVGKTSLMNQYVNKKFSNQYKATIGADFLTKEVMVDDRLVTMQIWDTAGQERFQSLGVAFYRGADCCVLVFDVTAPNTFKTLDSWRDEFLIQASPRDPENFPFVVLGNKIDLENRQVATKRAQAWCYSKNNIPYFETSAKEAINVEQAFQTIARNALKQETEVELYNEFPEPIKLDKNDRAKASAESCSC
UniProt Q8N0T1: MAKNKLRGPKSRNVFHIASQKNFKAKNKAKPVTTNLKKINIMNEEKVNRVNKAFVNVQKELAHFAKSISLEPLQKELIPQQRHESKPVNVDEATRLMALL
UniProt Q9UL25: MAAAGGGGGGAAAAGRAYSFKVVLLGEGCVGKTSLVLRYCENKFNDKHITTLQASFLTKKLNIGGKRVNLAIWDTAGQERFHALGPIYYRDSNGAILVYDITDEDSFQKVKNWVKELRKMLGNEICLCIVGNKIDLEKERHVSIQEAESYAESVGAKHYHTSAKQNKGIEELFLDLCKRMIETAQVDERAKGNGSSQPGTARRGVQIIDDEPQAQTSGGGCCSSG
UniProt Q5HYI8: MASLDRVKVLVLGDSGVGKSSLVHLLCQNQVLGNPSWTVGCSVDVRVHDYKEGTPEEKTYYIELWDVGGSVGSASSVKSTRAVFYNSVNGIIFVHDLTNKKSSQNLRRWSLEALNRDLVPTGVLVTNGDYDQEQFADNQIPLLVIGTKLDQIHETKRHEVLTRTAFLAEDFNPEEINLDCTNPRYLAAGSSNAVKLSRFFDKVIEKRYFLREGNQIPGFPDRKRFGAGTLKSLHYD
UniProt Q969Q5: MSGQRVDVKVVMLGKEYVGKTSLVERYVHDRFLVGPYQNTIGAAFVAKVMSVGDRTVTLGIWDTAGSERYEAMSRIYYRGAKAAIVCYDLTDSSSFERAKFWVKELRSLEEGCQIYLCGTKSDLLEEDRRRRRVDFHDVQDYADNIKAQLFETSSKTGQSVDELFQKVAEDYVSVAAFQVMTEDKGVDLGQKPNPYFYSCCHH
UniProt P10114: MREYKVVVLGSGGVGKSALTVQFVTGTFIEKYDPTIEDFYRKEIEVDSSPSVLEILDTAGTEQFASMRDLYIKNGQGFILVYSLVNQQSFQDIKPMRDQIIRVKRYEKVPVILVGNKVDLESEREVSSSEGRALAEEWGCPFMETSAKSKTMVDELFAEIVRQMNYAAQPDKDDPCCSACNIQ
UniProt Q96I25: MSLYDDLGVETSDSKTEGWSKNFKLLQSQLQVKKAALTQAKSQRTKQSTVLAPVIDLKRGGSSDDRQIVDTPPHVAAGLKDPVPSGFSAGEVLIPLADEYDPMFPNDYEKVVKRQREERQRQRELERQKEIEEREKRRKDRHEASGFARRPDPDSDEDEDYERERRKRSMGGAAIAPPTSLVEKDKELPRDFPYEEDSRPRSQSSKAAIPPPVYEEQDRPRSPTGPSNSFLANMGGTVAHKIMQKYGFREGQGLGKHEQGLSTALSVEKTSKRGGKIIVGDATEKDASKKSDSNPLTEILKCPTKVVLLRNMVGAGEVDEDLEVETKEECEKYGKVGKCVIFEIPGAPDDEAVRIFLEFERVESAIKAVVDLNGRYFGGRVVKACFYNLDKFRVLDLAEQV
UniProt P46060: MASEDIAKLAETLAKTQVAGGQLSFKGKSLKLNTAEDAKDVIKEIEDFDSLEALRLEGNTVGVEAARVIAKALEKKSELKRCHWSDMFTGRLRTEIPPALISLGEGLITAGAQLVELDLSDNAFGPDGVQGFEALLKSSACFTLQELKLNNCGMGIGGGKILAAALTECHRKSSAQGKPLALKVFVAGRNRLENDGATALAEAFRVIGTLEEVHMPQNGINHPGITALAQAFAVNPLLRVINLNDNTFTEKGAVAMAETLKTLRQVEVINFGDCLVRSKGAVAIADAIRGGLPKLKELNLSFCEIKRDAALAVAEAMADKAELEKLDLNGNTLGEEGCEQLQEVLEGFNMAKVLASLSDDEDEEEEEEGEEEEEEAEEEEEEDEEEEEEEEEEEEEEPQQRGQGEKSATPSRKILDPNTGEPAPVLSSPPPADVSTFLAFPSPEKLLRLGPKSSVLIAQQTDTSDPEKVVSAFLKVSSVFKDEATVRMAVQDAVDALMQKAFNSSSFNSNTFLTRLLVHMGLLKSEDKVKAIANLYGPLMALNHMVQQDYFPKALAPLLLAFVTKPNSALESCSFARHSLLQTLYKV
UniProt Q9BUV8: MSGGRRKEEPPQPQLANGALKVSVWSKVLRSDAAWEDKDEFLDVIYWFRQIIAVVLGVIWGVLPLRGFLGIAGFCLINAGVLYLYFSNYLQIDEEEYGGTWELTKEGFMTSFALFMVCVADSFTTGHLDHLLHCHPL
UniProt Q86YS6: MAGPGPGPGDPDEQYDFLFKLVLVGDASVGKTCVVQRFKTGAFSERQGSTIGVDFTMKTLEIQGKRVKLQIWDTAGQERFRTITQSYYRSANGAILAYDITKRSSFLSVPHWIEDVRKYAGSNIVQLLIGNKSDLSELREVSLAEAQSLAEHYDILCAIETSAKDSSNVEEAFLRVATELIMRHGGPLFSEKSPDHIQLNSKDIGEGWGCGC
UniProt Q15291, whole entry, looked up: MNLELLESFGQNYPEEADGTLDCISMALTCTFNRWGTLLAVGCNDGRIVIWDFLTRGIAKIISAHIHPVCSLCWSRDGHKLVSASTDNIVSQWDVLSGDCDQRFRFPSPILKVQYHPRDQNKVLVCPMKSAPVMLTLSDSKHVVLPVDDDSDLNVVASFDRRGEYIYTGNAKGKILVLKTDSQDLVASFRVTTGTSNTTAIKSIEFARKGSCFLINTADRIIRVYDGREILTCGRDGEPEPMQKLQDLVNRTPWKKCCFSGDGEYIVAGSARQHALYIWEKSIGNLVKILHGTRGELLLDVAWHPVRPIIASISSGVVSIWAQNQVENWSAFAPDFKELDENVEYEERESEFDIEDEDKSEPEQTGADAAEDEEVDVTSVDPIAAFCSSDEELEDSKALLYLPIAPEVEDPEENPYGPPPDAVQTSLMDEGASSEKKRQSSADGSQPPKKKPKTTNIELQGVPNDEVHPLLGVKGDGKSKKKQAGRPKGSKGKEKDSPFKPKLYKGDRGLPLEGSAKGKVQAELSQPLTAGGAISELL
UniProt P11233: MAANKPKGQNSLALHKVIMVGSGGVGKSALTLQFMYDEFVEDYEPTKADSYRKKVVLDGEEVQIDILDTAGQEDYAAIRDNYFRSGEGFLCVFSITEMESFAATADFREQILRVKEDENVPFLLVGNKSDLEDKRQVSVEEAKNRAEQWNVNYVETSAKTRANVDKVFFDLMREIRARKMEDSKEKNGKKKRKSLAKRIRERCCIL
UniProt Q7Z6M1: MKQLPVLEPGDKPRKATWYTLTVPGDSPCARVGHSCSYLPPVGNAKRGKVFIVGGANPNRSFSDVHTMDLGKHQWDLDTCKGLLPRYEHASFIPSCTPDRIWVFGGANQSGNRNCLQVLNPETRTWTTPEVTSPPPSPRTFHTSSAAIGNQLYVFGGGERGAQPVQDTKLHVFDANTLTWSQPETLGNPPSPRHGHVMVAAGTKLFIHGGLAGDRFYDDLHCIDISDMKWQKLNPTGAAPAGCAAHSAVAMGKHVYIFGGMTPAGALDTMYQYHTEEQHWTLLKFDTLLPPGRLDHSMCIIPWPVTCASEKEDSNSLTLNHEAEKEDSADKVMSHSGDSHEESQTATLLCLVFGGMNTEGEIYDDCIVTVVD
UniProt Q9UJ41, whole entry, looked up: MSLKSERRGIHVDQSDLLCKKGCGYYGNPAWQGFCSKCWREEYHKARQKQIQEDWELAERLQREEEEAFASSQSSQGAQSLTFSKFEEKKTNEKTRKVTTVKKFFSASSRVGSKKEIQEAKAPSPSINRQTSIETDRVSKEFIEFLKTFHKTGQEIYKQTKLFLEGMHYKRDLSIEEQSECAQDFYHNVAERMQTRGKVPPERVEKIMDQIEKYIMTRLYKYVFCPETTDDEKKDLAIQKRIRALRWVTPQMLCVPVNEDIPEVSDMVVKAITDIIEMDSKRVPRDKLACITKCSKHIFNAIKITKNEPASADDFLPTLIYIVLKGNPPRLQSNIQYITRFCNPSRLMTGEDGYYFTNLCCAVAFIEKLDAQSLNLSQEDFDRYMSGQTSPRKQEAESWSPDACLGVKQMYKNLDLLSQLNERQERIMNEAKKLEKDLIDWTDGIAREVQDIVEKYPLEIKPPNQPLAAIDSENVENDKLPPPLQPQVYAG
UniProt Q6WKZ4: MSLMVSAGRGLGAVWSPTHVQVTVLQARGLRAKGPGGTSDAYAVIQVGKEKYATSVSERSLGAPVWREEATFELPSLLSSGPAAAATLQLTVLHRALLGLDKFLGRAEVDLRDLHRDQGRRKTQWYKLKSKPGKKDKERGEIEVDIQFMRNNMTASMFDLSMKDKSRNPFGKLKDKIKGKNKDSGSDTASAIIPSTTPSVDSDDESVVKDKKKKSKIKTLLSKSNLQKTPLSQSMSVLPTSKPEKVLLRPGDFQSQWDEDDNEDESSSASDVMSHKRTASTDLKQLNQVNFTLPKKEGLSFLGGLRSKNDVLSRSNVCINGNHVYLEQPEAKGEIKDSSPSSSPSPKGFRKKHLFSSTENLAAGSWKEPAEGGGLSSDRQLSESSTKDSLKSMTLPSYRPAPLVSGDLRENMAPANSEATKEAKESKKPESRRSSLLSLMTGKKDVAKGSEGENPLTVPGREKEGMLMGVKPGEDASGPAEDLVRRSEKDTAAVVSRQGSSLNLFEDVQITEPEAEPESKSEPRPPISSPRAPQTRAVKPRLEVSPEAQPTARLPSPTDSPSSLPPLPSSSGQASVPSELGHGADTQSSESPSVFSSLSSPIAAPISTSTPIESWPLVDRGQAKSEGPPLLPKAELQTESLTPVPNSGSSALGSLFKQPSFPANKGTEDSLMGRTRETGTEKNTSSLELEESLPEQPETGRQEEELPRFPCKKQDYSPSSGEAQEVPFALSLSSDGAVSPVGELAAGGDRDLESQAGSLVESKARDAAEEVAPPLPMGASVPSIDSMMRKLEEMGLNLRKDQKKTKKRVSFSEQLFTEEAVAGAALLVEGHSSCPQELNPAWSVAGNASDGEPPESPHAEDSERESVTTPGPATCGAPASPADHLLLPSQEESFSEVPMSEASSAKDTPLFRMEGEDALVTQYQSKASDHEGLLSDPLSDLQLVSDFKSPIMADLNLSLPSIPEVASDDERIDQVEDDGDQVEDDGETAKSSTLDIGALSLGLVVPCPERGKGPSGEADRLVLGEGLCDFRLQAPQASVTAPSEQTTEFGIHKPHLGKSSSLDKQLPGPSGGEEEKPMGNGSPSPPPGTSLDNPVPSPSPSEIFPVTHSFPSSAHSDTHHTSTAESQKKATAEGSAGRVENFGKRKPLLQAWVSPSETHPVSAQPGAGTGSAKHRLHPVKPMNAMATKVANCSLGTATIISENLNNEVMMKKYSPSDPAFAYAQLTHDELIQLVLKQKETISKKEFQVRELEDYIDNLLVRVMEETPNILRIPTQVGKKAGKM
UniProt Q15042: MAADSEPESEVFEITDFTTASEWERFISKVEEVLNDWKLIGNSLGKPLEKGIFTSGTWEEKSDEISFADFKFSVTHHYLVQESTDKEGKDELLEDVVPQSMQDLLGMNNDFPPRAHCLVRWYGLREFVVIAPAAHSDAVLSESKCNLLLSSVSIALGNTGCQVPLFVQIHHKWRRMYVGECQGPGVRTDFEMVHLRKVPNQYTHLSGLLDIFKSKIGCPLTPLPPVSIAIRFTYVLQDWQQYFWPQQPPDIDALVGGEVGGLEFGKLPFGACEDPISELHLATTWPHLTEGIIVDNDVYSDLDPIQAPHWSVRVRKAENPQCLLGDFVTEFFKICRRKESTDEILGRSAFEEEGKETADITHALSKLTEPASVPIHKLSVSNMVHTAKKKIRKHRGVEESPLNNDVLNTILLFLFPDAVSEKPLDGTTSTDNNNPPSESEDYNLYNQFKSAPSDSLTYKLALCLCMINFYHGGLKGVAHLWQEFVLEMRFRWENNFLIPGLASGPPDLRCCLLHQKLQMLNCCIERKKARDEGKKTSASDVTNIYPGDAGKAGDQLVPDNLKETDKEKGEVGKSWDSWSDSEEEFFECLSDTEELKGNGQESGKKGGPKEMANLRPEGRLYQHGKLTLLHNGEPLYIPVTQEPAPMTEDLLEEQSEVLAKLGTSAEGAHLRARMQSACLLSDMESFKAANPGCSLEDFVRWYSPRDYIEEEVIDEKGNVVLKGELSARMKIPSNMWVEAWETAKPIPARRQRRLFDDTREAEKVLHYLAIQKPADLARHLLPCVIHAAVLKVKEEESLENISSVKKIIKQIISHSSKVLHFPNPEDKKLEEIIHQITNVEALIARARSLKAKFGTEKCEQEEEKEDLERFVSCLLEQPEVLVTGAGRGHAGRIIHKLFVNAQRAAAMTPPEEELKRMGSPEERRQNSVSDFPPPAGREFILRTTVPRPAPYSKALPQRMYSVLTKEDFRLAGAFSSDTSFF
UniProt Q9ULC3: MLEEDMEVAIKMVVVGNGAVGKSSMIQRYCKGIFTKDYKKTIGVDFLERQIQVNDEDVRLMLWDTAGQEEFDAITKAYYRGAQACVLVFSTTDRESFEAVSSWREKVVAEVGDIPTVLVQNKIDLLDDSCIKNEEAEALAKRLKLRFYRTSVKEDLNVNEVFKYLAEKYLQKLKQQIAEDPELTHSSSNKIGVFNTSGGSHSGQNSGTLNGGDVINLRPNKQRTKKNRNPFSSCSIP

Legend:
Experiment in all cases: log2 fold change, soluble protein after heating vs DMSO (PISA); higher = thermal stabilisation; K562 cells, 10 uM, 30 min; active = over 0.2 and 3.5 SD of the protein, either way, in both replicates (recomputed)
[1] = compound: CC1=C(C=C(C=C1)NC(=O)C2=CC(=CC=C2)C(C)(C)C#N)NC3=CC4=C(C=C3)N=CN(C4=O)C
Outline: (§1)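 Values are thermal stability changes relative to control samples and are taken from duplicates. They are stated as log2 fold changes. Before quantification by TMTpro 16plex LC-MS/MS with equalised channel sums, K562 cells at 2×10^6 cells/mL were treated with 10 μM compound for 30 min, heated in aliquots for 3 min across 48°C-58°C, pooled, extracted in PBS with 0.5% NP-40 at 4°C, and centrifuged at 21,000xg for 90 min to give the soluble supernatant.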

[2] = compound: CC1=C(C=C(C=C1)NC(=O)C2=CC(=CC=C2)N(C)C)NC(=O)C3=CC=C(C=C3)O
Outline: as §1

[3] = compound: CC1=CC=C(C=C1)SC2=C3C=C(SC3=CN=C2)C(=O)N
Outline: as §1

[4] = compound: CC1=NC(=CC=C1)C2=C(N=C(N2)C(C)(C)C)C3=CC4=NC=CN=C4C=C3
Outline: as §1

[5] = compound: CCCCN(Cc1ccc(C(=O)NO)cc1)C(=O)Nc1ccccc1 [Nexturastat A]
Outline: as §1

[6] = compound: CCCS(=O)(=O)Nc1ccc(F)c(C(=O)c2c[nH]c3ncc(-c4ccc(Cl)cc4)cc23)c1F [vemurafenib]
Outline: as §1

[7] = compound: CCCS(=O)(=O)Nc1ccc(F)c(C(=O)c2c[nH]c3ncc(Cl)cc23)c1F
Outline: as §1

[8] = compound: CCCc1cc(C)[nH]c(=O)c1CNC(=O)c1cc(-c2ccnc(N3CCN(C)CC3)c2)cc2c1cnn2C(C)C
Outline: as §1

[9] = compound: CCN(CC)Cc1ccc2cc(COC(=O)Nc3ccc(C(=O)NO)cc3)ccc2c1 [givinostat]
Outline: as §1

[10] = compound: CCN(CCCOc1ccc2c(Nc3cc(CC(=O)Nc4cccc(F)c4)[nH]n3)ncnc2c1)CCOP(=O)(O)O [barasertib]
Outline: as §1

Measured: log2 fold change

RARS2 (UniProt Q5T160)
inactive: [1] 0.018 | [2] 0.033 | [3] 0.056 | [4] 0.029 | [5] -0.027 | [6] 0.019 | [7] 0.05 | [8] -0.014 | [9] -0.037 | [10] 0.017

RAB7A (UniProt P51149)
inactive: [1] -0.024 | [2] 0.005 | [3] 0.004 | [4] -0.007 | [5] -0.009 | [6] 0.003 | [7] -0.006 | [8] 0.001 | [9] 0.007 | [10] -0.004

RBIS (UniProt Q8N0T1)
inactive: [1] -0.099 | [2] -0.011 | [3] -0.055 | [4] 0.023 | [5] -0.012 | [6] -0.002 | [7] -0.063 | [8] -0.074 | [9] -0.02 | [10] -0.009

RAB21 (UniProt Q9UL25)
inactive: [1] -0.001 | [2] -0.006 | [3] 0.028 | [4] -0.01 | [5] -0.081 | [6] -0.067 | [7] 0.001 | [8] -0.036 | [9] -0.023 | [10] -0.018

RAB32 (UniProt Q13637)
inactive: [1] -0.001 | [2] -0.024 | [3] 0.02 | [4] -0.015 | [5] 0.034 | [6] 0.064 | [7] 0.021 | [8] -0.026 | [9] 0.007 | [10] -0.041

RASA1 (UniProt P20936)
inactive: [1] -0.107 | [2] 0.003 | [3] 0.014 | [4] -0.105 | [5] -0.178 | [6] 0.021 | [7] -0.011 | [8] 0.056 | [9] 0.025

RBM26 isoform 3 (UniProt Q5T8P6)
inactive: [1] 0.017

RABL3 (UniProt Q5HYI8)
inactive: [1] 0.019 | [2] 0.052 | [3] 0.03 | [4] 0.07 | [5] -0.146 | [6] 0.003 | [7] 0.048 | [8] -0.038 | [9] 0.001 | [10] 0.017

RAB24 (UniProt Q969Q5)
inactive: [1] 0.044 | [2] 0.006 | [3] 0.01 | [4] 0.027 | [5] -0.043 | [6] 0.021 | [7] 0.039 | [8] -0.016 | [9] -0.027 | [10] -0.003

RAB1B (UniProt Q9H0U4)
inactive: [1] 0.03 | [2] 0.026 | [3] -0.035 | [4] 0.067 | [5] -0.063 | [6] -0.037 | [7] -0.064 | [8] -0.234 | [9] 0.017 | [10] -0.007

RAB3GAP2 (UniProt Q9H2M9)
inactive: [1] -0.001 | [2] -0.018 | [3] 0.017 | [4] -0.029 | [5] 0.215 | [6] 0.06 | [7] 0.026 | [8] 0.092 | [9] 0.106 | [10] 0.068

Two records drawn at random from those above:
RAB1B (UniProt Q9H0U4)
inactive: [1] 0.03 | [2] 0.026 | [3] -0.035 | [4] 0.067 | [5] -0.063 | [6] -0.037 | [7] -0.064 | [8] -0.234 | [9] 0.017 | [10] -0.007

RAB24 (UniProt Q969Q5)
inactive: [1] 0.044 | [2] 0.006 | [3] 0.01 | [4] 0.027 | [5] -0.043 | [6] 0.021 | [7] 0.039 | [8] -0.016 | [9] -0.027 | [10] -0.003

Continued.

RAP2A (UniProt P10114)
inactive: [1] 0.006 | [2] 0.006 | [3] 0.038 | [4] -0.045 | [5] -0.069 | [6] -0.021 | [7] -0.052 | [8] 0.013 | [9] -0.004 | [10] -0.012

RBM17 (UniProt Q96I25)
inactive: [1] -0.004 | [2] -0.036 | [3] 0.057 | [4] 0.012 | [5] 0.007 | [6] 0.068 | [7] 0.118 | [8] 0.013 | [9] 0.028 | [10] 0.043

RAB12, A0A3B3ITT1
inactive: [1] -0.013 | [2] -0.021 | [3] -0.03 | [4] 0.017 | [5] -0.05 | [6] -0.015 | [7] -0.017 | [8] 0.007 | [9] -0.008 | [10] 0.017

RAB11FIP4 (UniProt Q86YS3)
inactive: [1] 0.079

RANGAP1 (UniProt P46060)
inactive: [1] 0.008 | [2] -0.003 | [3] 0.008 | [4] 0.031 | [5] 0.004 | [6] 0.051 | [7] 0.098 | [8] 0.033 | [9] -0.014 | [10] 0.055

RAB5IF isoform 5 (UniProt Q9BUV8)
inactive: [1] 0.044 | [2] 0.01 | [3] -0.042 | [4] 0.247 | [5] -0.143 | [6] 0.047 | [7] 0.012 | [8] 0.244 | [9] -0.007 | [10] -0.003

RAB43 (UniProt Q86YS6)
inactive: [1] -0.036 | [2] -0.016 | [3] -0.022 | [4] 0.003 | [5] 0.035 | [6] -0.065 | [7] -0.019 | [8] -0.023 | [9] 0.025 | [10] 0.033

RBBP5 (UniProt Q15291)
inactive: [1] -0.016 | [2] 0.034 | [3] -0.022 | [4] -0.017 | [5] 0.036 | [6] -0.02 | [7] -0.011 | [8] -0.047 | [9] 0.002 | [10] -0.03

RALA (UniProt P11233)
inactive: [1] -0.007 | [2] -0.006 | [3] 0.02 | [4] 0.132 | [5] 0.021 | [6] -0.031 | [7] 0.05 | [8] 0.019 | [9] -0.002 | [10] -0.001

RABEPK (UniProt Q7Z6M1)
inactive: [1] -0.03 | [2] -0.031 | [3] -0.005 | [4] -0.002 | [5] -0.038 | [6] 0.021 | [7] -0.031 | [8] -0.092 | [9] -0.05 | [10] -0.019

RABGAP1L isoform 3 (UniProt Q5R372)
inactive: [1] 0.002 | [2] 0.018 | [3] 0.018 | [4] -0.005 | [5] -0.058 | [6] -0.008 | [7] 0.073 | [8] 0.03 | [9] 0.034 | [10] 0.022

RABGEF1 isoform 3 (UniProt Q9UJ41)
inactive: [1] -0.032 | [2] 0.069 | [3] 0.009 | [4] 0.006 | [5] 0.046 | [6] 0.015 | [7] -0.009 | [8] -0.01 | [9] -0.013 | [10] 0.005

RAB11B (UniProt Q15907)
inactive: [1] -0.033 | [2] 0.004 | [3] -0.021 | [4] -0.012 | [5] -0.008 | [6] -0.028 | [7] -0.039 | [8] -0.04 | [9] -0.006 | [10] -0.003

RAVER1 (UniProt E9PAU2)
inactive: [1] 0.144 | [2] -0.075 | [3] -0.025 | [4] 0.144 | [5] -0.046 | [6] -0.1 | [7] 0.067 | [8] 0.293 | [9] 0.131 | [10] 0.099

RAB11FIP1 (UniProt Q6WKZ4)
inactive: [1] -0.009 | [2] 0.001 | [3] 0.015 | [4] -0.018 | [5] 0.034 | [6] 0.006 | [7] 0.063 | [8] 0.009 | [9] 0.015 | [10] 0.014

RANBP17 (UniProt Q9H2T7)
inactive: [1] 0.116 | [2] 0.05 | [3] 0.861 | [4] 0.117 | [5] -0.038 | [6] 0.138 | [7] 0.022 | [8] 0.129 | [9] 0.113 | [10] 0.079

RAB4A (UniProt P20338)
inactive: [1] -0.046 | [2] 0.02 | [3] 0.061 | [4] -0.014 | [5] -0.098 | [6] 0.043 | [7] 0.055 | [8] -0.004 | [9] 0.001 | [10] -0.029

RAB8A isoform 2 (UniProt P61006)
inactive: [1] 0.014 | [2] 0.028 | [3] 0.001 | [4] 0.021 | [5] -0.158 | [6] 0.028 | [7] -0.019 | [8] -0.017 | [9] -0.058 | [10] -0.003

RAB3GAP1 (UniProt Q15042)
inactive: [1] 0.022 | [2] -0.06 | [3] -0.001 | [4] -0.01 | [5] 0.173 | [6] -0.021 | [7] 0.031 | [8] 0.066 | [9] 0.087 | [10] 0.013

RAB23 (UniProt Q9ULC3)
inactive: [1] -0.002 | [2] -0.001 | [3] -0.005 | [4] 0 | [5] -0.166 | [6] -0.008 | [7] -0.005 | [8] 0.021 | [9] 0.025 | [10] -0.014
